Results published in publication doi:10.1101/2022.01.24.477037.
No constants are given. Whether binding was seen depends on the method and setting. Binding seen in cells or lysates may run through a third protein. Some results given as binding are weak or reduced against the parent protein; the word gives no strength.

By UniProt entry, the sequences of proteins in these tests, tags left out.
UniProt Q9Y2T1: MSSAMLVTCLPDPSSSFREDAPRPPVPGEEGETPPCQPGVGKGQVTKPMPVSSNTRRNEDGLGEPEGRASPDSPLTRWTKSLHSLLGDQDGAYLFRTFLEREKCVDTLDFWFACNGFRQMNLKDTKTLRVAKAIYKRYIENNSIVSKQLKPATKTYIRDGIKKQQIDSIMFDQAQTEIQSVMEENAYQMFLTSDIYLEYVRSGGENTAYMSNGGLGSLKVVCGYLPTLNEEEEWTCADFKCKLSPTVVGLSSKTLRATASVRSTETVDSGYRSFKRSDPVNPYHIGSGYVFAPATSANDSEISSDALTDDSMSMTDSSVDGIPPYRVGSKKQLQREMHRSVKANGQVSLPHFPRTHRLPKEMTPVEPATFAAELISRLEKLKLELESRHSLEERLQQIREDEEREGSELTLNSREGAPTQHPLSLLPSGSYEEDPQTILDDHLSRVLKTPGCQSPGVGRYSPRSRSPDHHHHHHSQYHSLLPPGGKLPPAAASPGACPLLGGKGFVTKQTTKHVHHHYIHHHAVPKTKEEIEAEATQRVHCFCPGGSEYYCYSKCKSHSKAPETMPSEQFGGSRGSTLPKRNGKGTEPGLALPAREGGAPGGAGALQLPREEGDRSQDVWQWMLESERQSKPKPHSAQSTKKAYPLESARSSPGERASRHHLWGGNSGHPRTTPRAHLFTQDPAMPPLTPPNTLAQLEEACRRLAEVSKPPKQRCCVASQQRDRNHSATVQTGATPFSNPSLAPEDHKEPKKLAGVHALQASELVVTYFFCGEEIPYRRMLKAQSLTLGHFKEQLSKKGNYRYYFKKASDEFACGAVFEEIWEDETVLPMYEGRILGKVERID
UniProt P49841: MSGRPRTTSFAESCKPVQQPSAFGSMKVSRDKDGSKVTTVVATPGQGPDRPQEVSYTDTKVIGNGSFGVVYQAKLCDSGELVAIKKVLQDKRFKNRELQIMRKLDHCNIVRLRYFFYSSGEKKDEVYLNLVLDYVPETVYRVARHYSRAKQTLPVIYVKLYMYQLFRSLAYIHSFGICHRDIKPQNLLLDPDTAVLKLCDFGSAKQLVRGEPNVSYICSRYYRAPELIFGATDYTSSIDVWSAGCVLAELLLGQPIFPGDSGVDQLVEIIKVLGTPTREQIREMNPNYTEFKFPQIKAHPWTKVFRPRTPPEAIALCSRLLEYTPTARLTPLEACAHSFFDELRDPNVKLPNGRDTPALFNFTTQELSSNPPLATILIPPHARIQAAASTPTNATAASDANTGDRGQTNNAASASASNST
UniProt Q0ZME3: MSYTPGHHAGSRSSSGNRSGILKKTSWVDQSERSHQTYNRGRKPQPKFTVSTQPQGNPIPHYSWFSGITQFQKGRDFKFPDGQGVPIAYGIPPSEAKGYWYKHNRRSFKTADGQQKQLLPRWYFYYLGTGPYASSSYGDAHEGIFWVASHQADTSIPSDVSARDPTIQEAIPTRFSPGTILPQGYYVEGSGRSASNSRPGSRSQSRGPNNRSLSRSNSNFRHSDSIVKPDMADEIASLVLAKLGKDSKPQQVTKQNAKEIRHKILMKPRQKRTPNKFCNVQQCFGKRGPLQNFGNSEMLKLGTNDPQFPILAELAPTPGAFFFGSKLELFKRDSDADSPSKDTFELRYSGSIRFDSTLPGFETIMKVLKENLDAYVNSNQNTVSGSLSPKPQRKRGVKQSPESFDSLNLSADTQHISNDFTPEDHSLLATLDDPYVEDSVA
UniProt P15130: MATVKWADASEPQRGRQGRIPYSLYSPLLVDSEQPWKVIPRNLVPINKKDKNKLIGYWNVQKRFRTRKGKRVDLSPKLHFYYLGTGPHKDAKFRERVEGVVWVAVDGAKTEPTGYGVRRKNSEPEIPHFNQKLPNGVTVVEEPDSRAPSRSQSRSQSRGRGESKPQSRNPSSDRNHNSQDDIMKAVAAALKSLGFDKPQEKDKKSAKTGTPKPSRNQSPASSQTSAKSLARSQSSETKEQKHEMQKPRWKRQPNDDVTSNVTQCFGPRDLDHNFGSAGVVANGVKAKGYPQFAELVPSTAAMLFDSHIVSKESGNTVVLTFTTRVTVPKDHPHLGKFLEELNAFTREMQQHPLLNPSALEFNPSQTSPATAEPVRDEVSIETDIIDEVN
UniProt P33469: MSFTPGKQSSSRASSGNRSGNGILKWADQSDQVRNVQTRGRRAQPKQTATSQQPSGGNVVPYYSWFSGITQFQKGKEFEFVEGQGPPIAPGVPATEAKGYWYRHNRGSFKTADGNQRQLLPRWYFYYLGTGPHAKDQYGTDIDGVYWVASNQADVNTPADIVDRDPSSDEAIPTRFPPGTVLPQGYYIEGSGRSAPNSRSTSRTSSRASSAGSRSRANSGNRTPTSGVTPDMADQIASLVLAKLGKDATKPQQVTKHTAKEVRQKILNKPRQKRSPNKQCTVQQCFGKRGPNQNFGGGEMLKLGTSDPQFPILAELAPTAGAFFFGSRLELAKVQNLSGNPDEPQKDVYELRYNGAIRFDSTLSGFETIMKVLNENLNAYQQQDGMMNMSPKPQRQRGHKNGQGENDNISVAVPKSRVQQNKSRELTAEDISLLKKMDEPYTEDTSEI

Assays:
Flag-tagged Axin2 = Flag-tagged Axin2 (UniProt Q9Y2T1); assay: co-IP
[1] = molecular target: HA-tagged GSK-3β, wild type (UniProt P49841); assay: co-IP

| Substance | binding (Flag-tagged Axin2) | binding [1] |
| --- | --- | --- |
| HA-tagged GSK-3β, wild type (from UniProt P49841 1-420) (enzyme) | binds |  |
| N protein of human coronavirus HKU1, Flag-tagged (from UniProt Q0ZME3 1-441) |  | no binding |
| N protein of human coronavirus 229E, Flag-tagged (from UniProt P15130 1-389) |  | binds |
| N protein of human coronavirus OC43, Flag-tagged (from UniProt P33469 1-448) |  | no binding |
